In PubChem BioAssay AID493014 (National Center for Advancing Translational Sciences (NCATS), 2011):
Hit rate of the full screen: of about 340,000 compounds, about 170 (0.05%) were called active. Inconclusive results, whose numbers are uncertain, are shown with a selection of clear calls. The call rests on the fitted dose curve; in most records, active means well fitted inhibition curve with a large enough effect in the signal ratio, with a control signal flat (not every such curve was filed as active); inconclusive means small, poorly fitted or top-dose-only effect, or effect the other way, or a change in a side signal; inactive means flat fitted curve, though single readings scatter; the % refers to the signal ratio. Potencies beside an inconclusive call are fits to weak or partial responses and may not hold up.

Assay: qHTS Assay to Find Inhibitors of Chronic Active B-Cell Receptor Signaling;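 on activity change, negative = inhibition: plate controls were basal doxycycline-induced cells for no effect and cells given 10 µM MG132 for full effect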
Settings: ABC-DLBCL IkBa-CBG/CBR reporter, luminescence ratio (green luciferase fused to IkBa over red control in TMD8 lymphoma cells), 4 h; activity change, negative = inhibition: at 46.1 µM (top of the series)
In short: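 Concentration-response series (up to 46 uM) were applied to TMD8 dual-reporter cells for 4 h at 37C with doxycycline. Green/red ratio, after filter-overlap correction, defined %Activity; red signal alone was normalised to basal cells and zero luminescence.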
Potency means the concentration at half of the fitted maximal effect.

Q: With `Cc1ccc(O)c(CNc2ccc(S(=O)(=O)Nc3nccs3)cc2)c1` as the compound, how does the activity change, negative = inhibition read?
A: inconclusive: -10.8%

Q: For `Brc1cnc2nc(SCc3nc4ccccc4[nH]3)[nH]c2c1`, which Potency is on record?
A: inconclusive: 35.5 µM [falling, single point]

Q: Which Potency does the source give for `CN(C(=S)NC(=O)c1ccccc1Br)C1CCCCC1` here?
A: inconclusive: 35.5 µM [falling, single point]

Q: For `O=C(N1CCCC1)C(F)(F)Oc1ccc(F)cc1`, which activity change, negative = inhibition is on record?
A: inconclusive: 0.444%

Q: Which Potency does the source give for `Cc1[nH]n(-c2ccccc2)c(=O)c1/C=N/NC(=O)c1cccc(F)c1` here?
A: inconclusive: 4.47 µM [falling, full curve, poor fit]

Q: For `CCNC(=O)N(C)C[C@H]1N[C@@](C)(C(=O)OC)[C@H]2C(=O)N(C)C(=O)[C@@H]12`, which activity change, negative = inhibition is on record?
A: inconclusive: 0.116%

Q: With `C=CC(=O)N=c1sc2ccccc2n1-c1ccccc1` as the compound, how does the activity change, negative = inhibition read?
A: inconclusive: 24.4%

Q: For `COc1ccc(OCc2nnc(SCC(=O)Nc3ccccc3Cl)o2)cc1`, which activity change, negative = inhibition is on record?
A: inconclusive: -5.33%

Q: Which “activity change, negative = inhibition” value does the source give for `COc1cccc(C2C(C#N)=C(N)SC(c3ccccc3)C2[N+](=O)[O-])c1` (stereo not drawn) here?
A: inactive: -0.104%

Q: For `Cc1ccccc1C(=O)OC1OC(=O)C(Cl)=C1N1CCOCC1` (stereo not drawn), which activity change, negative = inhibition is on record?
A: inconclusive: -11.7%

Q: With `CCOC(=O)COc1ccc2cc(C(=O)OCC)c(=O)oc2c1` as the compound, how does the activity change, negative = inhibition read?
A: inconclusive: 5.34%

Q: With `C/C(=N\NC(=O)CNc1cccc(C(F)(F)F)c1)c1cccc(Br)c1` as the compound, how does the activity change, negative = inhibition read?
A: inconclusive: 23.5%

Q: For `Cc1ccc(NC(=O)N2CCc3ccccc3C2)cc1C`, which activity change, negative = inhibition is on record?
A: inconclusive: -14.8%

Q: For `NC(=O)c1ccc(NC(=O)c2cccc(Oc3ccccc3)c2)cc1`, which Potency is on record?
A: inconclusive: 3.16 µM [falling, full curve, poor fit]

Q: For `CCCN1CN=C(Nc2nc3ccccc3o2)NC1`, which activity change, negative = inhibition is on record?
A: inconclusive: 7.73%

Q: For `CCc1ccc(Sc2cc(C(=O)NCCN3CCOCC3)c3ccccc3n2)cc1`, which “activity change, negative = inhibition” value is on record?
A: inactive: 11%

Q: For `Cc1ccc(C)n1-c1ccc(C(=O)NN)s1`, which Potency is on record?
A: inconclusive: 25.1 µM [falling, single point]

Q: With `COc1ccc(Nc2nc(N)nc(CSc3nnc(C)s3)n2)cc1` as the compound, how does the Potency read?
A: inconclusive: 29.1 µM [falling, single point]

Q: Which activity change, negative = inhibition does the source give for `O=C(Nc1cccc(Br)c1)c1cccc(OC(=S)N2CCOCC2)c1` here?
A: inconclusive: -27.2%

Q: With `CCC1(CC)NC(=O)N(CC(=O)Nc2cccc3ccccc23)C1=O` as the compound, how does the “activity change, negative = inhibition” value read?
A: inactive: -0.618%

Q: Which activity change, negative = inhibition does the source give for `Brc1cccc(CNc2nc3ccccc3n2CCN2CCOCC2)c1` here?
A: inconclusive: 3.56%

Q: For `COc1ccc(N2CCN(c3ccc(S(=O)(=O)N(C(C)C)C(C)C)cn3)CC2)cc1`, which “activity change, negative = inhibition” value is on record?
A: inactive: 1.47%

Q: With `COc1c(C)cccc1C(=O)Nc1ccc(OCC(=O)N2CCOCC2)cc1C` as the compound, how does the Potency read?
A: inconclusive: 2.24 µM [falling, full curve, poor fit]

Q: Which activity change, negative = inhibition does the source give for `COc1ccc(Cc2nnc(SCC(=O)N(C)CC(=O)Nc3ccc(C)cc3)o2)cc1` here?
A: inconclusive: -0.537%

Q: Which “activity change, negative = inhibition” value does the source give for `CC(=O)Oc1cc(O)c2c(c1)OC(c1ccc(OC(C)=O)c(OC(C)=O)c1)C(OC(C)=O)C2=O` (stereo not drawn) here?
A: inactive: 9.3%

Q: With `Cc1ccc(S(=O)(=O)N2CCN(C(=O)Cn3nc(C)c([N+](=O)[O-])c3C)CC2)c(C)c1` as the compound, how does the activity change, negative = inhibition read?
A: inconclusive: -13.9%

Q: With `Cc1nc2nc[nH]n2c(=O)c1NS(=O)(=O)c1ccc(C(C)(C)C)cc1` as the compound, how does the “activity change, negative = inhibition” value read?
A: inactive: -10.2%

Q: Which Potency does the source give for `C=C(C)C(=O)N1CC2(CC(c3cccc(NC(=O)c4ccccc4)c3)=NO2)C[C@@H]1C(N)=O` (stereo partly drawn) here?
A: inconclusive: 28.2 µM [falling, single point]

Q: With `COC(=O)c1ccsc1NC(=O)C1COc2ccccc2O1` (stereo not drawn) as the compound, how does the Potency read?
A: inconclusive: 7.31 µM [rising, partial curve, poor fit]

Q: Which “activity change, negative = inhibition” value does the source give for `C[C@H](NC(=O)[C@H]1N2C(=O)c3ccccc3C2SC1(C)C)C(=O)N1CCCCC1` (stereo partly drawn) here?
A: inactive: 4.27%

Q: Which activity change, negative = inhibition does the source give for `Cc1ccc2[nH]c3nc(NN)nnc3c2c1` here?
A: inconclusive: -5.32%

Q: Which Potency does the source give for `COc1cc([N+](=O)[O-])ccc1N/C=C/C(=O)c1cccs1` here?
A: inconclusive: 11.2 µM [falling, partial curve]

Q: Which Potency does the source give for `NC(=S)N/N=C/c1ccc(-c2ccc(Cl)c(Cl)c2)o1` here?
A: inconclusive: 29.1 µM [cytotoxic, single point]

Q: For `COc1ccc(NS(=O)(=O)c2ccc(N)cc2)nn1`, which activity change, negative = inhibition is on record?
A: inconclusive: 2.17%

Q: Which Potency does the source give for `COc1ccc(-c2nc(C(N)=O)c3[nH]c(=O)n(-c4cccc(C)c4)c3n2)c(OC)c1` here?
A: inconclusive: 9.2 µM [falling, partial curve, poor fit]

Q: For `CC(C)n1cnc2c(NCc3ccccc3)cc(N[C@H](C)CO)cc21`, which activity change, negative = inhibition is on record?
A: inconclusive: 0.19%

Q: With `COc1ccccc1OCC(=O)Nc1ccc(Cl)cc1` as the compound, how does the Potency read?
A: inconclusive: 25.9 µM [falling, single point]

Q: Which activity change, negative = inhibition does the source give for `O=C(O)c1cc2c(ccc3ccccc32)[nH]1` here?
A: inconclusive: 12.3%

Q: With `Cc1ccc(CNC(=O)CCCCCNC(=O)N2CCn3c2nc2ccccc23)cc1` as the compound, how does the activity change, negative = inhibition read?
A: inconclusive: -0.0119%

Q: Which activity change, negative = inhibition does the source give for `COc1nn(CC(=O)N2N=C(C)CC2(O)C(F)(F)F)cc1[N+](=O)[O-]` (stereo not drawn) here?
A: inconclusive: 7.86%

Q: With `C/C(=N\N(Cc1ccccc1)c1ccccc1)c1cccnc1` as the compound, how does the “activity change, negative = inhibition” value read?
A: inactive: 1.35%

Q: For `O=C(Nc1ccc2c(c1)OCCO2)c1ccc(Cl)c(S(=O)(=O)N2CCOCC2)c1`, which activity change, negative = inhibition is on record?
A: inconclusive: 1.76%

Q: For `COC(=O)C1C(=O)c2c(C)noc2CC1(C)C` (stereo not drawn), which activity change, negative = inhibition is on record?
A: inconclusive: -2.45%

Q: For `Cc1c2n(c3ccccc13)CC/C2=N\O`, which activity change, negative = inhibition is on record?
A: inconclusive: -4.04%

Q: Which Potency does the source give for `O=C(COc1ccccc1[N+](=O)[O-])N1CCN(C(=O)c2ccco2)CC1` here?
A: inconclusive: 15.8 µM [falling, partial curve, poor fit]

Q: With `CC(C)(C)c1cnnn1-c1ccc(C(=O)CCl)cc1` as the compound, how does the Potency read?
A: inconclusive: 23.1 µM [falling, single point]

Q: Which “activity change, negative = inhibition” value does the source give for `Cc1ccccc1NC(=O)c1sc(Cl)nc1C` here?
A: inactive: 0.936%

Q: For `O=C(CSc1nnc(Cn2c(=O)sc3ccccc32)n1-c1ccccc1)Nc1nccs1`, which activity change, negative = inhibition is on record?
A: inconclusive: 9.6%

Q: For `COc1ccc(OC)c(-n2c(SCC(N)=O)nnc2-c2c[nH]c3ccccc23)c1`, which “activity change, negative = inhibition” value is on record?
A: inactive: -0.797%

Q: For `Cc1cccc(C(=O)OCC(=O)NC23CC4CC(CC(C4)C2)C3)c1O`, which “activity change, negative = inhibition” value is on record?
A: inactive: -4.51%

Q: For `O=C(O)c1cccc(NC(=O)c2cccc(NC(=O)C3CCCO3)c2)c1` (stereo not drawn), which Potency is on record?
A: inconclusive: 17.8 µM [falling, partial curve]

Q: For `Cc1cc(C)c2c(CN3CCN(Cc4ccccc4)CC3)cc(=O)oc2c1C`, which activity change, negative = inhibition is on record?
A: inconclusive: -12.7%

Q: For `O=C(NNC(=O)c1cccs1)c1ccco1`, which Potency is on record?
A: inconclusive: 35.5 µM [falling, single point]

Q: Which activity change, negative = inhibition does the source give for `CCOC(=O)c1sc(N=NC2=C(O)CC(C)(C)CC2=O)c(C(=O)OCC)c1C` here?
A: inconclusive: -4.5%

Q: With `COc1ccc2c3n([n+]([O-])c2c1)CCN=C3c1cc(Cl)c(N)c(Cl)c1` as the compound, how does the activity change, negative = inhibition read?
A: inconclusive: -22%

Q: For `Cc1ccc(OCC(=O)O/N=C(\N)c2ccccn2)cc1`, which Potency is on record?
A: inconclusive: 17.8 µM [falling, single point]

Q: With `CCN1C(=O)[C@H]2[C@@H](c3ccc(-c4ccc(Cl)c(Cl)c4)cc3)N[C@@](CC(C)C)(C(=O)OC)[C@H]2C1=O` as the compound, how does the activity change, negative = inhibition read?
A: inconclusive: -12%

Q: Which Potency does the source give for `CCCN(Cc1ccco1)S(=O)(=O)c1ccc(OC)c(OC)c1` here?
A: inconclusive: 8.91 µM [falling, partial curve, poor fit]

Q: For `CSc1ccc(NC(=O)Nc2cc(C)ccn2)cc1`, which activity change, negative = inhibition is on record?
A: inconclusive: 7.29%

Q: Which activity change, negative = inhibition does the source give for `Cc1cnc(NC(=O)CCCNC(=O)c2ccc(Cl)cc2)s1` here?
A: inconclusive: 9.37%

Q: With `Cc1c(NC(=O)CN2C(=O)C(=O)c3ccccc32)c(=O)n(-c2ccccc2)n1C` as the compound, how does the “activity change, negative = inhibition” value read?
A: inactive: 9.37%

Q: Which “activity change, negative = inhibition” value does the source give for `Cc1ccc(C)c(NC(=O)NNC(=O)c2cc3ccccc3cc2O)c1` here?
A: inactive: 2.41%

Q: With `CCN(CC)c1ccc(NC(=O)c2[nH]c(C)c(C(C)=O)c2C)c(C)c1` as the compound, how does the activity change, negative = inhibition read?
A: inconclusive: 4.46%

Q: For `O=C(O)c1ccc2c3n(nc2c1)-c1ccc(Cl)cc1CO3`, which Potency is on record?
A: inconclusive: 0.501 µM [falling, full curve, poor fit]

Q: For `O=C(Nc1ccc(Cl)cc1)[C@@H]1[C@@H]2C(=O)N(c3ccc4ccccc4c3)C(=O)[C@@H]2[C@H]2C=CC=NN21`, which Potency is on record?
A: inconclusive: 6.51 µM [falling, full curve, poor fit]

Q: For `CSc1ccc(Cl)c(C(=O)Nc2ccc(OCC(N)=O)cc2)c1`, which Potency is on record?
A: inconclusive: 35.5 µM [falling, single point]

Q: With `CN1CCC(C2(O)c3ccccc3CSc3sccc32)CC1` (stereo not drawn) as the compound, how does the activity change, negative = inhibition read?
A: inconclusive: -8.12%

Q: With `CCOC(=O)N1CCN(C(=O)COC(=O)C2CCN(S(=O)(=O)c3c(Cl)cccc3Cl)CC2)CC1` as the compound, how does the activity change, negative = inhibition read?
A: inconclusive: 9.8%

Q: For `CCCCCCSc1cc(C)nc2ncnn12`, which “activity change, negative = inhibition” value is on record?
A: inactive: 14.2%

Q: For `CCOC(=O)c1ccc(S(=O)(=O)NNc2ccc(C(F)(F)F)cn2)cc1`, which activity change, negative = inhibition is on record?
A: inconclusive: -17.2%

Q: Which activity change, negative = inhibition does the source give for `O=C(NCc1ccco1)NC(=O)c1csc([N+](=O)[O-])c1` here?
A: inconclusive: 14.5%

Q: For `Cc1nn(-c2ccccn2)c2c1C(c1ccncc1)C1=C(CC(C)(C)CC1=O)N2` (stereo not drawn), which activity change, negative = inhibition is on record?
A: inconclusive: 26.6%

Q: For `Cc1cc2ncc(-c3ncc(C(F)(F)F)cc3Cl)cn2n1`, which activity change, negative = inhibition is on record?
A: inconclusive: 12.9%

Q: With `O=C(C1=C[C@@H](c2coc3ccccc3c2=O)C[C@@H](OCCCCO)O1)N1CCOCC1` as the compound, how does the Potency read?
A: inconclusive: 6.31 µM [falling, single point]

Q: With `CCCC(=O)O[C@]1(C(=O)COC(C)=O)CC[C@H]2[C@@H]3C[C@H](F)C4=CC(=O)C=C[C@]4(C)[C@@]3(F)[C@@H](O)C[C@@]21C` as the compound, how does the activity change, negative = inhibition read?
A: inconclusive: -13.2%

Q: With `Cc1ccc(NC(=O)C2CCN(S(=O)(=O)c3c(C)noc3/C=C/c3ccco3)CC2)nc1` as the compound, how does the “activity change, negative = inhibition” value read?
A: inactive: -7.99%

Q: With `COc1cc(C2C(C(=O)Nc3ccccc3)=C(C)Nc3nc(SCC(=O)c4ccc(C)cc4)nn32)ccc1O` (stereo not drawn) as the compound, how does the “activity change, negative = inhibition” value read?
A: inactive: 5.06%

Q: With `COc1ccc(/C=C/C(=O)C2(O)CCCCC2)cc1OC` as the compound, how does the “activity change, negative = inhibition” value read?
A: inactive: 2.34%
